The numbers were not newly measured in US6703417B2, “Aqueous-prodrug compound comprising moiety of paclitaxel or derivatives thereof, method of preparing same and pharmaceutical composition comprising same” (Kolon Industries, Inc., priority 2000, dated 2004), which cites them from elsewhere.

As to `CC(=O)O[C@H]1C(=O)[C@@]2(C)[C@H]([C@H](OC(=O)c3ccccc3)[C@]3(O)C[C@H](OC(=O)[C@H](O)[C@@H](NC(=O)c4ccccc4)c4ccccc4)C(C)=C1C3(C)C)[C@]1(OC(C)=O)CO[C@@H]1C[C@@H]2O` [Paclitaxel], the solubility in water entry was “insoluble in water”.
